Results from the supplement of paper PMC12819154, “High-throughput peptide-centric local stability assay extends protein–ligand identification to membrane proteins, tissues and bacteria” (Nature Structural & Molecular Biology, 2025).
The other results are listed elsewhere or left out. Most values lie at the level of the controls, where differences are scatter.

Protein sequences, listed by entry. Tags and fused reporters are not part of them. Lines headed by an entry give the natural chain unless they say otherwise; changes in a name come on top.
UniProt Q8CI12: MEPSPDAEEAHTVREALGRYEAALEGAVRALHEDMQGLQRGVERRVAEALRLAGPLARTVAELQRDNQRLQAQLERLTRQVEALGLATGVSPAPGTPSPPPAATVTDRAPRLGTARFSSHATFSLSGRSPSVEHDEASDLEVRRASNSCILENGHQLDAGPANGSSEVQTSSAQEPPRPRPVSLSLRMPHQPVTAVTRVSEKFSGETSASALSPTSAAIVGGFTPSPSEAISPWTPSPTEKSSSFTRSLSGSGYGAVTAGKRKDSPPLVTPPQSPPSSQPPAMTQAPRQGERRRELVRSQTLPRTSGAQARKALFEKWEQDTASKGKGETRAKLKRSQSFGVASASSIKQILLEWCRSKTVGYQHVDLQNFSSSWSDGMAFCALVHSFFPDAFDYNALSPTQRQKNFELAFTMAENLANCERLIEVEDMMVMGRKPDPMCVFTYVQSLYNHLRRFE
UniProt Q8K0T4: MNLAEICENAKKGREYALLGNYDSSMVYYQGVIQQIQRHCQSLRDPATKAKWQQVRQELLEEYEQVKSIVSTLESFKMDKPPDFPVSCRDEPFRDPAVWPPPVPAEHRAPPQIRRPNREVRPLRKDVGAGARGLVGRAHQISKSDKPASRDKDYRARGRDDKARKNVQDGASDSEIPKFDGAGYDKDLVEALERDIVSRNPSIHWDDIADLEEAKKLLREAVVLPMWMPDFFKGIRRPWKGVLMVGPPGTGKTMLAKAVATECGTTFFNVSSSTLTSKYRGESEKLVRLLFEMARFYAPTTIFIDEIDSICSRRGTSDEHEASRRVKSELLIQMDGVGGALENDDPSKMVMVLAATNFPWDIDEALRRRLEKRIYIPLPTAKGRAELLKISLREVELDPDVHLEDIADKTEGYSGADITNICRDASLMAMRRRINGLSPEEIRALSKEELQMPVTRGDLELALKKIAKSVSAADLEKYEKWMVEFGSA
UniProt Q8CHH9: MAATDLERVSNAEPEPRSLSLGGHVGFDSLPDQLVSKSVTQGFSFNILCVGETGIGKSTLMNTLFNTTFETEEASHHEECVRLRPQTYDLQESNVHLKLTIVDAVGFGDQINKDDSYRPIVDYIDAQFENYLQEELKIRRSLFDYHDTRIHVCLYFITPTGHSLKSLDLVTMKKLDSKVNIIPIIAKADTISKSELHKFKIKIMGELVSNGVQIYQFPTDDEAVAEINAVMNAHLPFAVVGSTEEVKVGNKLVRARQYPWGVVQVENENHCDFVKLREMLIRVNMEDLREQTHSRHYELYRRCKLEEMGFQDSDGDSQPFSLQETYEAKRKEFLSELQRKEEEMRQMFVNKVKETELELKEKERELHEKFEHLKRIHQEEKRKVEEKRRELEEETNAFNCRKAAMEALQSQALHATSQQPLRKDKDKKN
UniProt Q8CF94: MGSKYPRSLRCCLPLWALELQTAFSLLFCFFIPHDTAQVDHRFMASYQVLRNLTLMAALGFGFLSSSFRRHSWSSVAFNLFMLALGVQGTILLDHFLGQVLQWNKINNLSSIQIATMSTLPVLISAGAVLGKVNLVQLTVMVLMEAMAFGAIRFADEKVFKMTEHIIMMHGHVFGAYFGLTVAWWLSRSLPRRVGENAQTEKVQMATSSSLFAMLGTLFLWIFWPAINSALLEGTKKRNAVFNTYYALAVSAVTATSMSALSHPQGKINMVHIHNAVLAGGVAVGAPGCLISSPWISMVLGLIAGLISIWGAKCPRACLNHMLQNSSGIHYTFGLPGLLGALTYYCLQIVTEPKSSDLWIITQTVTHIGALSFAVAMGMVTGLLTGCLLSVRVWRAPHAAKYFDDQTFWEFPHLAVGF
UniProt Q8CDD9: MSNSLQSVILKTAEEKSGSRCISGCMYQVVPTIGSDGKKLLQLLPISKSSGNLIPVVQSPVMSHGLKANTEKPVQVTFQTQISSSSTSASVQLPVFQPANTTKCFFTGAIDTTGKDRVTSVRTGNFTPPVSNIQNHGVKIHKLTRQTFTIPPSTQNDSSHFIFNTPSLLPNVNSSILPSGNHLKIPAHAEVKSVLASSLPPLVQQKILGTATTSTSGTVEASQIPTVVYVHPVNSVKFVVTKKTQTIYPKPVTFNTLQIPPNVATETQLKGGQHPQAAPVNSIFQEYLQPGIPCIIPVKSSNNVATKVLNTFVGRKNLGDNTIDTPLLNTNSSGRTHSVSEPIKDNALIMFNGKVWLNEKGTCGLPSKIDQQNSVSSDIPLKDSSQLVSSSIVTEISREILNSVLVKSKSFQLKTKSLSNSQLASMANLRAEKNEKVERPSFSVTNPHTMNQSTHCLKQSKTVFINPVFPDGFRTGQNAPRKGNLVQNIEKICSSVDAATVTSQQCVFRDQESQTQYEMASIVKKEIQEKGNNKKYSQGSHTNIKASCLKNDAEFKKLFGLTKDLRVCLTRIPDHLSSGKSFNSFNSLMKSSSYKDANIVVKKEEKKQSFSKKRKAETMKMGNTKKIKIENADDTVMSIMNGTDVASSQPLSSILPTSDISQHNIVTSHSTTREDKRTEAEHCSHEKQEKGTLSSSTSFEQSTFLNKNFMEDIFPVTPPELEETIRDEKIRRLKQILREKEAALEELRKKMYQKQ

Compound: CN[C@@H]1C[C@H]2O[C@@](C)([C@@H]1OC)n1c3ccccc3c3c4c(c5c6ccccc6n2c5c31)C(=O)NC4 [staurosporine]
Assay: log2 fold change of tryptic peptide abundance, ligand vs vehicle (limited proteolysis) (log2 ratio); higher = more trypsin-susceptible (destabilized)
Conditions: ligand concentration: 20 uM; sample: mouse liver crude lysate; replicate design: treated separately

Row | Target | log2 fold change
1 | UniProt Q8CI12 (peptide sequence: MPHQPVTAVTR, peptide start residue: 188) | 0.594
2 | UniProt Q8K0T4 (peptide sequence: IYIPLPTAK, peptide start residue: 374) | 0.388
3 | UniProt Q8CHH9 (peptide sequence: ELHEKFEHLKR, peptide start residue: 365) | -0.106
4 | UniProt Q8CF94 (peptide sequence: VGENAQTEK, peptide start residue: 194) | 0.107
5 | UniProt Q8CDD9 (peptide sequence: EKEAALEELR, peptide start residue: 739) | -0.36
